Measured values: paper PMC9112550, “Optimization of the antimicrobial peptide Bac7 by deep mutational scanning” (BMC Biology, 2022)

Key:
E. coli TOP10 [1] = assay: Deep mutational scanning, site-saturation Bac7_1-23 library, intracellular self-screening with NGS; format: cell-based; settings: site-saturation library, 156,779 variants; rank 1 = most active
Experimental: A focused strategy was pursued to generate diversity at positions 5, 18, 19, and 20 in the Bac7_1-23 peptide. […] Degeneration was introduced by using the QuikChange technique, amplifying the pBAD plasmid containing the Bac7_1-23 gene using a mixture of 20 oligonucleotides (Additional file 1: Table S1) at a final concentration of 0.3 μM and Phusion® High-Fidelity PCR Master Mix in HF buffer. The amplification was performed using 20 cycles of 98°C for 10 s, 60°C for 15 s, and 72°C for 10 s. The PCR product was treated with the enzyme Dpn1 to remove the template plasmid and subsequently purified. The purified product was used to transform 20 μl of CloneCatcher™ Gold DH5G Electrocompetent E. coli (Genlantis, Burlington, USA) cells using electroporation.
To assess the antimicrobial activity of multiple peptides in parallel when expressed intracellularly in E. coli TOP10, previously prepared aliquots containing E. coli plasmid libraries created by either random mutagenesis or site-saturation mutagenesis were used. For both approaches, three aliquots containing approximately 500 million cells each of E. coli TOP10 harboring peptide-encoding DNA sequences on the pBAD plasmid were thawed and added to three 1-l baffled shake flasks containing 100 ml of LB medium + 100 μg ml^−1 carbenicillin. The cultures were grown for roughly 7 h at 37°C.

E. coli TOP10 [2] = assay: Deep mutational scanning, epPCR (randomly mutagenized) Bac7_1-23 library, intracellular self-screening with NGS; format: cell-based; settings: epPCR library, 601,551 variants; rank 1 = most active; qualitative measure

“RRIRKRPPRLPRPRPRPYSNPRP [site-saturation library peptide ID 98068]” was tested, and the “Rank by antimicrobial activity” value (E. coli TOP10 [1]) was 2.

With “RRIRPRPPRLPRPRPRTLLFPWP [epPCR library peptide ID 294002]” the “Rank by antimicrobial activity” value (E. coli TOP10 [2]) was 4.
